# Reference: the supplement of paper PMC3334620
# Whole data set: some 33,000 sequences, median “E-score (-0.5 to 0.5)” near -8e-05, cut for the highest 2% near 0.23. Some of the results follow.
# Biological target: T1, Nrg2 (UniProt P38082)
# T1 sequence: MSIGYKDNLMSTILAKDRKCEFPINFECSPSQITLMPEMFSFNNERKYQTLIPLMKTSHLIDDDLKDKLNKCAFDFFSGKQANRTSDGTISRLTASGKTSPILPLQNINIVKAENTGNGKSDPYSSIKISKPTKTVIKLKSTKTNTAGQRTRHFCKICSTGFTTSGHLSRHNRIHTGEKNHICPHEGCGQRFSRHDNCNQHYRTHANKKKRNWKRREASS
# Assay: PBM E-score (8-mer binding enrichment) (E-score (-0.5 to 0.5)); higher = stronger / more preferred TF binding
# Conditions: protein concentration: 100 nM; construct: GST-full length
# In short: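 PURExpress in vitro transcription/translation supplied GST-tagged yeast transcription factors, either full-length or DNA-binding domain. Applied at about 100-200 nM to universal all-10-mer Agilent arrays double-stranded by primer extension, the bound protein was detected with fluorescent anti-GST. E-scores, modified Wilcoxon-Mann-Whitney statistics, were given by the Universal PBM Analysis Suite to ungapped eight-base words pooled with their reverse complements after masliner normalisation.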
row,Sequence,PBM E-score
1,ACGTTTGG,-0.246
2,ACACTGCA,-0.0569
3,TGAGATCA,-0.045
4,AAGACGAC,0.0398
5,AGCCAACC,0.0974
6,CTTCTTCC,-0.166
7,AGAAAGGA,0.0396
8,ATTTAACA,0.0136
9,ACCAGAAC,0.238
10,AATCAAAT,0.18
11,ATACTCAT,-0.114
12,GAGAGGAA,0.084
13,CGCGTCAG,-0.116
14,AACTGTGG,0.108
15,CGGAAAAA,-0.0675
16,ATTATCGC,0.254
17,CCAATTCC,0.0538
18,AGGGTATG,0.212
19,ATGGACAA,0.143
20,AGGCAGGC,-0.121
21,CAGATTAC,-0.0348
22,ACGATGTA,0.059
23,CAGGGTCC,0.446
24,CGATGATA,-0.00501
25,CATAGCTC,-0.112

row,Sequence,PBM E-score
1,CGAGCGTA,-0.0601
2,ACAGTGGA,0.19
3,CGTCTCAG,-0.0393
4,AAAGATCG,0.0698
5,ACCTCTCC,-0.318
6,CTTAATAC,0.188
7,AACTCGAG,0.194
8,GAAGGGAA,-0.0367
9,GAATTTGA,0.104
10,GAGAATCC,0.106
11,TAAGACTA,-0.0747
12,CGGAGAAC,-0.106
13,CAGGGAAG,0.0197
14,TACGCTCA,0.1
15,GTGATAAA,0.00436
16,GCGTCCAA,-0.128
17,CTTCAATA,0.0194
18,TAGCACAA,0.00877
19,TGGCGAAA,-0.0493
20,GTACAGTA,0.0873
21,AACAGTGA,-0.0365
22,TTACGCAA,0.0695
23,CAGAAAGG,0.0423
24,CCCCCGCA,-0.229
25,AGTCACAG,0.00296

row,Sequence,PBM E-score
1,AACGCATA,-0.00337
2,CTGTGTTC,0.107
3,ACCGACGG,-0.0684
4,CGCAATAG,0.124
5,CGATGGCA,0.0295
6,TCCGAAGA,0.0947
7,CAATACCC,0.202
8,AATTGTAA,-0.226
9,AGCCCAGC,-0.152
10,ACAGGGAA,0.0579
11,GTCCACGA,-0.00569
12,AGCTAATC,0.104
13,TAGCCAGA,-0.137
14,AGAGTCTG,-0.194
15,ACGCTCGC,0.0306
16,GGAGCTAC,-0.224
17,GAGATCTA,0.048
18,CATATGAA,0.174
19,GTACTCGA,-0.0513
20,TGTTACAA,0.113
21,AACTTGTA,-0.00218
22,CCCAAGCG,0.0241
23,GCCCACCA,-0.15
24,CTTTGGTA,-0.174
25,ATTAACAC,0.246

row,Sequence,PBM E-score
1,AGGAACGG,0.0417
2,CATAACAG,0.0146
3,CTTAAAGA,-0.144
4,TAGACGAA,-0.102
5,AGAGTGCA,-0.0559
6,GAGTGTCA,0.165
7,AAGAACCC,0.0457
8,CCCAATAC,-0.0177
9,ACCATAAA,0.0648
10,ATTTACCC,0.169
11,GGAGTGTA,-0.262
12,CTGGTATA,-0.1
13,TATTGCGA,0.215
14,ACCGAGTA,-0.0179
15,GGCTTATA,-0.151
16,TCCCGCCA,-0.06
17,CTATTTAC,-0.00332
18,AATCACGC,0.00595
19,ATTGGGCG,-0.0658
20,GAGCTGAA,0.0293
21,ATATATTG,-0.0404
22,CGAGAGAC,0.0218
23,CAATCCGC,-0.0316
24,AATGCAAG,0.0402
25,CGTCTCAC,-0.0603

row,Sequence,PBM E-score
1,CGTAGGTC,-0.325
2,TGGTAAAA,-0.0794
3,ACTAAGAT,0.177
4,AACATCAA,0.204
5,GCGAGTGA,0.0688
6,ACTTCTCC,-0.0928
7,ATAGAGGG,0.0622
8,ATACCTAT,0.151
9,ATGTTGCC,-0.0261
10,GCGTTCAC,-0.181
11,CAAGCCTG,-0.166
12,ACTACAGT,0.0385
13,AAATGCGT,0.107
14,AGCGGCCC,-0.265
15,TCATGTAA,-0.142
16,CATAGACA,-0.0465
17,ATTTGTAC,0.0588
18,GAGTCTGA,-0.0871
19,CATTCCTC,0.0295
20,GACCCTTA,0.321
21,AAGATTAA,0.0915
22,GAAACCTA,-0.141
23,AAGCTACA,0.00648
24,CATCACGC,0.0179
25,ATGCTTAA,-0.069

row,Sequence,PBM E-score
1,AGCACTTA,-0.0801
2,ATTAGGTC,0.216
3,GAATTAAA,0.165
4,ACCGCCGG,-0.0836
5,GTTGTTCA,-0.00763
6,TAGTACTA,0.121
7,CTACGTTA,-0.0115
8,GGTCTCAA,0.0103
9,ATTATTAG,-0.00975
10,CCCAACAA,0.0468
11,CGACACAG,-0.0558
12,AGCATGCT,-0.064
13,CCTAAACC,-0.0707
14,CTAGATCC,0.127
15,ACGGTGAA,0.0949
16,GTCGTCAC,-0.0906
17,GCCTGTGA,-0.0742
18,CAAACTTA,0.0571
19,ATTTTGGG,-0.102
20,CACATACA,-0.0126
21,GCTCTGCA,-0.25
22,AAGCTTAA,0.107
23,CACCACGG,-0.325
24,GGTCGTCA,-0.0631
25,AACTACCA,-0.0713

row,Sequence,PBM E-score
1,CTAAACCC,-0.0134
2,TTCTCAAA,0.211
3,CCAGTTTC,0.0541
4,CACCCAGG,-0.131
5,TCCAAGAA,0.0177
6,AAGCTAAG,-0.319
7,CCACGGAG,0.0299
8,ATCTCCGC,-0.0353
9,GGTATGTA,-0.0642
10,CAAGAACA,0.007
11,ACCCATCT,0.0368
12,CCACTTGC,0.0133
13,CTCCGAAA,-0.0954
14,ACGAGGGA,0.0972
15,CGCAAAGC,0.0242
16,GAGATGGA,-0.0519
17,CGTCGGAA,-0.00762
18,AGGCTTAA,-0.1
19,AAATGAAA,0.182
20,CGACTCGA,-0.112
21,AGCCCATA,0.0496
22,GACTGTGA,0.03

# Single values from the list.
# PBM E-score with CAATCCGC reads -0.0316
# PBM E-score with ACGAGGGA reads 0.0972
# PBM E-score with CAAGAACA reads 0.007
# PBM E-score with CATAACAG reads 0.0146
